The test deals with MX-1 breast xenograft, intrarenal, nude mice, tumor weight. The experiment in a line: NCI In Vivo Anticancer Drug Screen. Data for tumor model Human Mammary Carcinoma MX-1 Xenograft (intrarenal inoculation) in NU/NU BALB/C (nude) mice. The settings on record: T/C endpoint: mean tumor weight change, higher T/C = larger tumour; for T/C: evaluated on day 11. Here is the method:
The antitumor activity of compounds was measured in mice bearing transplantable tumors. Survival or tumor size were measured and the results are expressed as the measurement made in the treated group (T) divided by the measurement made in the vehicle treated control group (C). The tumor model used in this assay is Human Mammary Carcinoma MX-1 Xenograft (intrarenal inoculation) in NU/NU BALB/C (nude) mice

Where [1] appears, read: dose: 600.0 mg/kg/injection, schedule: Q04DX003 (sc), vehicle: saline.
Setting [2] is: dose: 300.0 mg/kg/injection, schedule: Q04DX003 (ip), vehicle: saline with Tween-80.

The list is a part of this screen's results and no random one: it gathers tests that were run many times, whatever their T/C, doses with no T/C, and many T/C values between a quarter and a half above the control. Other doses and runs of a compound stand elsewhere. T/C gives the treated animals as a percentage of the vehicle group. Schedule codes are those of the source, read here as Q, the interval in days (D) or hours (H), X, the number of doses. Some entries give survivors of the animals treated and no T/C: the source holds a T/C of zero for them, seemingly a mark for toxic or unscored doses. Survivors were counted at the toxicity check, usually on the fifth day, unless a day is given; later deaths do not show. Some entries hold several experiments; the results are listed from low to high.

For `CS(=O)(=O)OCCCNCCCOS(C)(=O)=O`, the survivor count by setting is: (dose: 150.0 mg/kg/injection, schedule: Q04DX003 (sc), vehicle: saline) 0 of 6 on day 11; (dose: 300.0 mg/kg/injection, schedule: Q04DX003 (sc), vehicle: saline) 0 of 6 on day 11; under setting [1], 0 of 6 on day 11.

Regarding `Cc1ccoc1`, the survivor count (dose: 400.0 mg/kg/injection, schedule: Q01DX010 (ip), vehicle: saline with Tween-80) is 0 of 6 on day 11.

In the case of `C[C@]12CC[C@H](OC(=O)Cc3ccc(N(CCCl)CCCl)cc3)CC1=CC[C@@H]1[C@@H]2CC[C@]2(C)C(=O)CC[C@@H]12`, the survivor count (dose: 2000.0 mg/kg/injection, schedule: Q04DX003 (ip), vehicle: saline with Tween-80) is reported as 0 of 6 on day 11.

With `Oc1ccc(CCl)c2cccnc12`, the survivor count under setting [1] is reported as 0 of 6 on day 11.

Turning to `COc1cc2cc3c(c(O)c2c(O)c1/C=C/C(C)C)C(=O)CC(C)(OC(C)=O)C3` (stereo not drawn), for the setting “dose: 40.0 mg/kg/injection, schedule: Q04DX003 (ip), vehicle: Klucel (hydroxypropylcellulose) (HPC)”, the survivor count is 0 of 6 on day 11.

Regarding `CN(C)c1nc(N(C)C)[n+]([O-])c(N(C)C)n1`, the T/C is 133 % of control (dose: 50.0 mg/kg/injection, schedule: Q01DX010 (ip), vehicle: water) and 146 % of control (dose: 100.0 mg/kg/injection, schedule: Q01DX010 (ip), vehicle: water).

For `O=C1C=CC2OC(c3ccccc3)C(O)C2O1` (stereo not drawn), for the setting “dose: 12.5 mg/kg/injection, schedule: Q04DX003 (ip), vehicle: DMSO”, the T/C is 134 % of control. Where the note is “dose: 100.0 mg/kg/injection, schedule: Q04DX003 (ip), vehicle: DMSO”, the survivor count is given as 2 of 6 on day 11.

On to `COc1c(C=O)c2c(c(OC)c1OC)-c1ccc(OC)c(=O)cc1[C@@H](NC(C)=O)CC2`, for which the survivor count (dose: 75.0 mg/kg/injection, schedule: Q04DX003 (sc), vehicle: Klucel (hydroxypropylcellulose) (HPC)) was 1 of 6 on day 11.

On to `COc1cc2c[n+](C)c3c(c2cc1OC)Cc1cc2c(cc1-3)OCO2`, for which the survivor count runs as follows: under setting [2], 1 of 6 on day 11; (dose: 600.0 mg/kg/injection, schedule: Q04DX003 (ip), vehicle: saline with Tween-80) 0 of 6 on day 11.

For `Nc1nncs1`, the survivor count is 0 of 3 on day 11 (dose: 100.0 mg/kg/injection, schedule: Q01DX010 (sc), vehicle: saline); 0 of 3 on day 11 (dose: 200.0 mg/kg/injection, schedule: Q01DX010 (sc), vehicle: saline); 0 of 3 on day 11 (dose: 400.0 mg/kg/injection, schedule: Q01DX010 (sc), vehicle: saline); 0 of 3 on day 11 (dose: 800.0 mg/kg/injection, schedule: Q01DX010 (sc), vehicle: saline).

For the molecule `S=C(N/N=C1/CCCC/C1=N/NC(=S)N1CCOCC1)N1CCOCC1`, the T/C (dose: 3.12 mg/kg/injection, schedule: Q04DX003 (ip), vehicle: saline with Tween-80) is 132 % of control. The survivor count (dose: 37.5 mg/kg/injection, schedule: Q04DX003 (ip), vehicle: saline with Tween-80) is on record as 1 of 6 on day 11; the survivor count (dose: 75.0 mg/kg/injection, schedule: Q04DX003 (ip), vehicle: saline with Tween-80) is on record as 0 of 6 on day 11; the survivor count (dose: 150.0 mg/kg/injection, schedule: Q04DX003 (ip), vehicle: saline with Tween-80) is listed as 0 of 6 on day 11; the survivor count under setting [2] was 0 of 6 on day 11.

Turning to `CC(C)(C[NH-])C[NH-].[Cl][Pt+2][Cl]`, the survivor count (dose: 12.0 mg/kg/injection, schedule: Q04DX003 (ip), vehicle: water) was 2 of 6 on day 11 and 3 of 6 on day 11; the survivor count (dose: 24.0 mg/kg/injection, schedule: Q04DX003 (ip), vehicle: water) was 1 of 6 on day 11.

For the molecule `NNC(=S)N/N=C/c1ccccn1`, the survivor count (dose: 120.0 mg/kg/injection, schedule: Q04DX003 (sc), vehicle: saline with Tween-80) was 0 of 6 on day 11.

As to `COc1cccc2c1C(=O)c1c(O)c3c(c(O)c1C2=O)C[C@@](O)(/C(C)=N\O)C[C@@H]3OC1CC(N)C(O)C(C)O1` (stereo partly drawn), the survivor count (dose: 100.0 mg/kg/injection, schedule: Q04DX003 (sc), vehicle: saline) is listed as 0 of 6 on day 11.

`CCC1(O)C(=O)OCc2c1cc1n(c2=O)Cc2cc3cc(N)ccc3nc2-1` (stereo not drawn): the survivor count was 3 of 6 on day 11 (dose: 15.0 mg/kg/injection, schedule: Q04DX003 (ip), vehicle: suspension in saline); 0 of 6 on day 11 (dose: 30.0 mg/kg/injection, schedule: Q04DX003 (ip), vehicle: suspension in saline); 0 of 6 on day 11 (dose: 60.0 mg/kg/injection, schedule: Q04DX003 (ip), vehicle: suspension in saline).

With `CC#CCOCC(O)CCl` (stereo not drawn), the survivor count by setting is: (dose: 300.0 mg/kg/injection, schedule: Q04DX003 (ip), vehicle: suspension in saline) 3 of 6 on day 11; (dose: 600.0 mg/kg/injection, schedule: Q04DX003 (ip), vehicle: suspension in saline) 1 of 6 on day 11 and 3 of 6 on day 11; (dose: 1200.0 mg/kg/injection, schedule: Q04DX003 (ip), vehicle: suspension in saline) 0 of 6 on day 11.

As to `Cc1nnc2ncccn12`, the T/C (dose: 400.0 mg/kg/injection, schedule: Q04DX003 (sc), vehicle: saline) was 131 % of control. For the same molecule, the survivor count (dose: 800.0 mg/kg/injection, schedule: Q04DX003 (sc), vehicle: saline) is recorded as 2 of 6 on day 11.

With `C=C(C)C1C2CC3(C)C4(CO4)C4OC4C3(O)C1C(=O)O2` (stereo not drawn), the survivor count by setting is: (dose: 1.25 mg/kg/injection, schedule: Q04DX003 (ip), vehicle: Klucel (hydroxypropylcellulose) (HPC)) 0 of 5 on day 11; (dose: 2.5 mg/kg/injection, schedule: Q04DX003 (ip), vehicle: Klucel (hydroxypropylcellulose) (HPC)) 2 of 6 on day 11; (dose: 5.0 mg/kg/injection, schedule: Q04DX003 (ip), vehicle: Klucel (hydroxypropylcellulose) (HPC)) 0 of 6 on day 11; (dose: 10.0 mg/kg/injection, schedule: Q04DX003 (ip), vehicle: Klucel (hydroxypropylcellulose) (HPC)) 0 of 6 on day 11; (dose: 20.0 mg/kg/injection, schedule: Q04DX003 (ip), vehicle: Klucel (hydroxypropylcellulose) (HPC)) 0 of 6 on day 11.

Turning to `C[n+]1c(-c2ccc(NC(=O)c3ccc(C(=O)Nc4ccc(-c5cn6ccccc6[n+]5C)cc4)cc3)cc2)cn2ccccc21`, the survivor count is recorded as 0 of 6 on day 11 (dose: 25.0 mg/kg/injection, schedule: Q04DX003 (ip), vehicle: saline with Tween-80); 1 of 6 on day 11 (dose: 50.0 mg/kg/injection, schedule: Q04DX003 (ip), vehicle: saline with Tween-80); 0 of 6 on day 11 (dose: 100.0 mg/kg/injection, schedule: Q04DX003 (ip), vehicle: saline with Tween-80); 0 of 6 on day 11 (dose: 200.0 mg/kg/injection, schedule: Q04DX003 (ip), vehicle: saline with Tween-80).

As to `O=NN(CCCl)C(=O)NCCCl`, the survivor count reads like this: (dose: 60.0 mg/kg/injection, schedule: Q04DX003 (sc), vehicle: Klucel (hydroxypropylcellulose) (HPC)) 0 of 3 on day 11; (dose: 120.0 mg/kg/injection, schedule: Q04DX003 (sc), vehicle: Klucel (hydroxypropylcellulose) (HPC)) 0 of 3 on day 11.

Turning to `CN=C=O`, the survivor count by setting is: (dose: 18.75 mg/kg/injection, schedule: Q04DX003 (ip), vehicle: olive oil, sesame oil, peanut oil) 2 of 6 on day 11; (dose: 37.5 mg/kg/injection, schedule: Q04DX003 (ip), vehicle: olive oil, sesame oil, peanut oil) 3 of 6 on day 11; (dose: 75.0 mg/kg/injection, schedule: Q04DX003 (ip), vehicle: olive oil, sesame oil, peanut oil) 1 of 6 on day 11; (dose: 150.0 mg/kg/injection, schedule: Q04DX003 (ip), vehicle: olive oil, sesame oil, peanut oil) 0 of 6 on day 11; (dose: 300.0 mg/kg/injection, schedule: Q04DX003 (ip), vehicle: olive oil, sesame oil, peanut oil) 0 of 6 on day 11; (dose: 600.0 mg/kg/injection, schedule: Q04DX003 (ip), vehicle: olive oil, sesame oil, peanut oil) 0 of 6 on day 11. For the same molecule, the survivor count (dose: 1200.0 mg/kg/injection, schedule: Q04DX003 (ip), vehicle: olive oil, sesame oil, peanut oil) is on record as 0 of 6 on day 11.

Source of the values: PubChem BioAssay AID298 (DTP/NCI, 2004).
